Data reported in PubChem BioAssay (EPA / NIEHS).
Inconclusive means that the source gave no clear call. Such entries were picked first, then a sample of the others. For some assays here: Where the call is inconclusive, the potency comes from a doubtful curve fit. Calls of active or inactive are those of the source. How the source made its calls: active means hit-call score of the fitted dose curve at least 0.9, where 1 is the maximum; inconclusive means response in the unintended direction; inactive means score below 0.9.

Sequences of proteins named here, by UniProt entry; tags and fusion partners are left off. A change or cut given only in a name is not applied to a line headed by its entry.
UniProt P04406: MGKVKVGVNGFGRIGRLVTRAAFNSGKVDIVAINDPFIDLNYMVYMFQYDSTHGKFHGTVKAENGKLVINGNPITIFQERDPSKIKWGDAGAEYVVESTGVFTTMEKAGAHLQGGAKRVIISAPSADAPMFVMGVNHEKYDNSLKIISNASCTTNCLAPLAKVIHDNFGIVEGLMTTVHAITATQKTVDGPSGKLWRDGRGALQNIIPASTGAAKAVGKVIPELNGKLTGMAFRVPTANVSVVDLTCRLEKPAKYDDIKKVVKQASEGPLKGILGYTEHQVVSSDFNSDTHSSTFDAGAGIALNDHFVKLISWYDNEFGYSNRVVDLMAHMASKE
UniProt P20813: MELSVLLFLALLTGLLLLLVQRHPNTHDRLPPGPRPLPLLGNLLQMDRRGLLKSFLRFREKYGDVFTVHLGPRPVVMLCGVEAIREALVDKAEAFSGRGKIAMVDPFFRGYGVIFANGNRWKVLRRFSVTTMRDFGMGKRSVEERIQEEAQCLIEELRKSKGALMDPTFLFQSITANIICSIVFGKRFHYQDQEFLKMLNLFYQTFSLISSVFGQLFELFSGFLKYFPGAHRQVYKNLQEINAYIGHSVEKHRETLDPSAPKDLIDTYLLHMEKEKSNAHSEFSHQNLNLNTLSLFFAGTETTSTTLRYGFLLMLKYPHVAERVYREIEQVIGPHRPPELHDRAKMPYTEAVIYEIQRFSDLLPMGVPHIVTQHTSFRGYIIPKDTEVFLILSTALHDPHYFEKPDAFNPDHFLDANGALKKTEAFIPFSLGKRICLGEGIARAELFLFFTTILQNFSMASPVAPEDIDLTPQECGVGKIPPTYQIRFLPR
UniProt P33261, whole entry, looked up: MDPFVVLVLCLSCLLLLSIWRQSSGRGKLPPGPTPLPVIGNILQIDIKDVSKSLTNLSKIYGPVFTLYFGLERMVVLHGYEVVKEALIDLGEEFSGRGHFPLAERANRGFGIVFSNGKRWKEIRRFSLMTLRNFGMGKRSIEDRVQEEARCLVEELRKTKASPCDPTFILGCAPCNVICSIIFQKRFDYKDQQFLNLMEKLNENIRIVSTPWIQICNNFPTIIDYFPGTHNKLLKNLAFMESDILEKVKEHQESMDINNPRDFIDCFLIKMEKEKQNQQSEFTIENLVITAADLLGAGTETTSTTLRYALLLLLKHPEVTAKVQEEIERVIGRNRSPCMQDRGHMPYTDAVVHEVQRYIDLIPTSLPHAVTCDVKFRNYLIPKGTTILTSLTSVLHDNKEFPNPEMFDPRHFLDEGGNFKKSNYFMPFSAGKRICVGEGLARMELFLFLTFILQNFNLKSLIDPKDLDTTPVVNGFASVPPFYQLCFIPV
UniProt P08684, whole entry, looked up: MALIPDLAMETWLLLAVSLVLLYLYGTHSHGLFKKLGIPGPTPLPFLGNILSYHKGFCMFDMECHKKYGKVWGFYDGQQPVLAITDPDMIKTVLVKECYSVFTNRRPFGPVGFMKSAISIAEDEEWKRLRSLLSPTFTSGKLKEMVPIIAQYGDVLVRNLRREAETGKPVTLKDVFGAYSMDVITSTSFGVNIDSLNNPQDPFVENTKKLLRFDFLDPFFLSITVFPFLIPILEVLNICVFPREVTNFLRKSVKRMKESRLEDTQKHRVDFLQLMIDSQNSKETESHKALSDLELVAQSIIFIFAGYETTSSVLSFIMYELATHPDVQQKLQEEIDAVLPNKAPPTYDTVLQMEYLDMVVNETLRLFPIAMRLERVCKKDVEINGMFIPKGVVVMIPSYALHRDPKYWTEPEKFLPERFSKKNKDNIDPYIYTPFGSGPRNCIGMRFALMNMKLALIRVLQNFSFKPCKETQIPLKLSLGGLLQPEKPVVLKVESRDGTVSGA

How the values were obtained:
[1] = Tanguay_ZF_120hpf_TR_legacy: (Legacy) Oregon State University Tanguay Lab 120 Hour Post-fertilization zebrafish Assay for Touch Response (AID 2283667)
Outline: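 Binary touch-response call at 120 hpf, analysed as gain of signal versus DMSO baseline. Wild-type 5D larvae, static exposure at 28C, 0.64% DMSO final; 5uM trimethyltin chloride as positive control.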

[2] = CLD_ACTIN_24hr: CellzDirect (CLD) Gene Expression Assay for Baseline Control (Actin) at 24 hours (AID 2283670)
Outline: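 This 24 h qNPA (S1 nuclease protection, chemiluminescence) actin transcript readout in cultured human liver primary cells serves as baseline control. Signal is fitted upward relative to 0.2% DMSO; chemicals tested at multiple concentrations across two donor preparations.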

[3] = CLD_ACTIN_6hr: CellzDirect (CLD) Gene Expression Assay for Baseline Control (Actin) at 6 hours (AID 2283676)
Outline: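 Baseline actin transcript level measured by qNPA (S1 nuclease protection, chemiluminescence) in human hepatocyte cultures 6 h after chemical exposure; 0.2% DMSO vehicle as reference, cytotoxicity noted from morphology.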

[4] = read-out: Glyceraldehyde-3-phosphate dehydrogenase (Homo sapiens) (UniProt P04406); experiment: CLD_GAPDH_6hr: CellzDirect (CLD) Gene Expression Assay for Baseline Control (Glyceraldehyde 3-phosphate dehydrogenase) at 6 hours (AID 2283681);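 on outcome: active means increased signal relative to DMSO vehicle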
Outline: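 GAPDH baseline-control readout from qNPA (S1 nuclease digestion, probe hybridization, chemiluminescence) in lysates of cultured human hepatocytes harvested 6 h post-dosing. Chemicals tested at multiple concentrations versus 0.2% DMSO vehicle; microscopy-based cytotoxicity flagged yes/no.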

[5] = read-out: xenobiotic metabolism (CYP1A2), CYP1A2 (gene 1544); experiment: CLD_CYP1A2_24hr: CellzDirect (CLD) Gene Expression Assay for xenobiotic metabolism (CYP1A2) at 24 hours (AID 2283683)
Outline: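 CYP1A2 mRNA induction measured by quantitative nuclease protection (chemiluminescent) in human primary hepatocytes 24 h after multi-concentration chemical dosing with daily fresh solutions. DMSO (0.2%) baseline; positive-direction fitting; morphology-based cytotoxicity noted.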

[6] = read-out: sulfotransferase (SULT2A), SULT2A1 (gene 6822); experiment: CLD_SULT2A_6hr: CellzDirect (CLD) Gene Expression Assay for sulfotransferase (SULT2A) at 6 hours (AID 2283669);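 further: hits raise transcript level above the DMSO vehicle baseline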
Outline: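 Measured 6 h after dosing, SULT2A1 mRNA in human hepatocyte lysates was quantified by S1 nuclease protection with chemiluminescent detection. Increases fitted against 0.2% DMSO vehicle baseline; phase-contrast cytotoxicity recorded yes/no.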

[7] = read-out: xenobiotic metabolism (CYP1A1), CYP1A1 (gene 1543); experiment: CLD_CYP1A1_24hr: CellzDirect (CLD) Gene Expression Assay for xenobiotic metabolism (CYP1A1) at 24 hours (AID 2283673);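 further: CYP1A1 mRNA level by quantitative nuclease protection with chemiluminescence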
Outline: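 Transcript levels were read at 24 h by qNPA chemiluminescence in human liver primary cells. Cells got daily fresh dosing at multiple concentrations (vehicle 0.2% DMSO). Induction fitted upward against DMSO; phase-contrast cytotoxicity annotated.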

[8] = read-out: Cytochrome P450 2B6 (Homo sapiens) (UniProt P20813); experiment: CLD_CYP2B6_6hr: CellzDirect (CLD) Gene Expression Assay for xenobiotic metabolism (CYP2B6) at 6 hours (AID 2283677);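 further: actives raise CYP2B6 transcript above DMSO baseline so AC50 marks an inducer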
Outline: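 CYP2B6 transcript levels, read by chemiluminescent qNPA, were fitted for increase versus DMSO baseline; cultured human liver hepatocytes from two donor preparations were harvested 6 h after exposure to test chemicals at multiple concentrations.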

[9] = read-out: HMG-CoA synthase (HMGCS2), HMGCS2 (gene 3158); experiment: CLD_HMGCS2_6hr: CellzDirect (CLD) Gene Expression Assay for HMG-CoA synthase (HMGCS2) at 6 hours (AID 2283682);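 further: actives raise HMGCS2 transcript above the 0.2% DMSO vehicle baseline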
Outline: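 HMGCS2 transcript induction read by quantitative nuclease protection with chemiluminescence, 6 h after dosing of primary human hepatocytes. Baseline was 0.2% DMSO vehicle; phase-contrast morphology gave a yes/no cytotoxicity annotation.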

[10] = read-out: ABC Transporter (ABCB1), ABCB1 (gene 5243); experiment: CLD_ABCB1_24hr: CellzDirect (CLD) Gene Expression Assay for ABC Transporter (ABCB1) at 24 hours (AID 2283684);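 on AC50: potency for increase in ABCB1 mRNA relative to DMSO vehicle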
Outline: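 ABCB1 mRNA induction versus 0.2% DMSO vehicle was read by qNPA chemiluminescence at 24 h. Cultured human hepatocytes from two donor preparations received daily fresh dosing, and phase-contrast cytotoxicity calls were annotated alongside the data.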

[11] = read-out: organic anion transporter (SLCO1B1), SLCO1B1 (gene 10599); experiment: CLD_SLCO1B1_6hr: CellzDirect (CLD) Gene Expression Assay for organic anion transporter (SLCO1B1) at 6 hours (AID 2283668);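 further: active means mRNA induction above DMSO baseline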
Outline: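 SLCO1B1 mRNA induction measured 6 h after dosing by quantitative nuclease protection with chemiluminescent read-out, in human primary hepatocyte cultures given chemicals at several concentrations (vehicle 0.2% DMSO). Increase over DMSO baseline fitted; morphology-based cytotoxicity annotated yes/no.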

[12] = read-out: glucuronosyltransferase (UGT1A1), UGT1A1 (gene 54658); experiment: CLD_UGT1A1_6hr: CellzDirect (CLD) Gene Expression Assay for glucuronosyltransferase (UGT1A1) at 6 hours (AID 2283672)
Outline: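 UGT1A1 mRNA induction, read by quantitative nuclease protection assay, 6 h after dosing primary human hepatocytes (two donors, 0.2% DMSO vehicle). Gain of signal fitted relative to vehicle.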

[13] = read-out: Cytochrome P450 2C19 (Homo sapiens) (UniProt P33261); experiment: CLD_CYP2C19_6hr: CellzDirect (CLD) Gene Expression Assay for xenobiotic metabolism (CYP2C19) at 6 hours (AID 2283678)
Outline: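 CYP2C19 transcript induction was quantified by quantitative nuclease protection assay with chemiluminescent read-out, 6 h after dosing. Cells were primary human hepatocytes from two donor preparations, given fresh dosing solutions daily in 0.2% DMSO vehicle. Activity was relative to DMSO.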

[14] = read-out: Cytochrome P450 3A4 (Homo sapiens) (UniProt P08684); experiment: CLD_CYP3A4_6hr: CellzDirect (CLD) Gene Expression Assay for xenobiotic metabolism (CYP3A4) at 6 hours (AID 2283680)
Outline: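 CYP3A4 mRNA induction, 6 h after dosing of cultured primary human hepatocytes from two donors, read by quantitative nuclease protection (qNPA, chemiluminescence). Vehicle 0.2% DMSO as baseline; morphology-based cytotoxicity annotated yes/no.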

[15] = read-out: ABC Transporter (ABCB11), ABCB11 (gene 8647); experiment: CLD_ABCB11_6hr: CellzDirect (CLD) Gene Expression Assay for ABC Transporter (ABCB11) at 6 hours (AID 2283675);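 further: hits raise ABCB11 mRNA level so AC50 marks induction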
Outline: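 Read-out was ABCB11 mRNA gain of signal by quantitative nuclease protection assay, relative to 0.2% DMSO vehicle, 6 h post-dose. Cells were primary human hepatocytes from two donors, treated across multiple concentrations; phase-contrast cytotoxicity noted yes/no.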

C[C@]12CCC(=O)C=C1CC[C@@H]1[C@@H]2CC[C@]2(C)C(=O)CC[C@@H]12
AC50 [1]: active: 26.8 µM

O=C(O)C1C(C(=O)O)C2(Cl)C(Cl)=C(Cl)C1(Cl)C2(Cl)Cl (configuration not stated)
outcome [1]: inactive

ClCC(Cl)CCl
AC50 [1]: inconclusive: 202 µM

CCCN(CCC)c1c([N+](=O)[O-])cc(S(N)(=O)=O)cc1[N+](=O)[O-]
AC50 [1]: inconclusive: 4.91 µM
AC50 [2]: inconclusive: 20 µM
AC50 [3]: inconclusive: 20 µM
AC50 [4]: inconclusive: 20 µM
AC50 [5]: inconclusive: 1.89 µM

CC#Cc1cc(C)nc(Nc2ccccc2)n1
AC50 [1]: inconclusive: 3.5 µM

O=C(Oc1ccc(Br)cc1)N1CCN2CCC1CC2
AC50 [1]: inconclusive: 10 µM

COc1cc(-c2ccc(N)c(OC)c2)ccc1N
AC50 [1]: inconclusive: 3.32 µM

O=C(O)C1C2CCC(O2)C1C(=O)O (configuration not stated)
AC50 [1]: inconclusive: 5.49 µM

C1CC2OC2CC1C1CO1 (configuration not stated)
AC50 [1]: inconclusive: 18 µM

CCOc1nc(F)cc2nc(S(=O)(=O)Nc3c(Cl)cccc3Cl)nn12
AC50 [2]: inconclusive: 11.5 µM
AC50 [3]: inconclusive: 20 µM
AC50 [4]: inconclusive: 20 µM
outcome [5]: inactive

COc1nc(C)nc(NC(=O)NS(=O)(=O)c2ccccc2Cl)n1
AC50 [6]: inconclusive: 20 µM
AC50 [7]: inconclusive: 0.118 µM
outcome [7]: inactive
outcome [8]: inactive
AC50 [4]: inconclusive: 20 µM
AC50 [9]: inconclusive: 20 µM
AC50 [10]: inconclusive: 20 µM

CCC(C)(C)c1ccc(O)cc1
AC50 [1]: active: 48.3 µM

CCCCc1ccccc1
outcome [1]: inactive

Cc1ccc([N+](=O)[O-])cc1C
AC50 [1]: inconclusive: 11.7 µM

OCCOc1ccccc1
AC50 [1]: inconclusive: 99 µM
AC50 [11]: inconclusive: 20 µM
AC50 [6]: inconclusive: 20 µM
AC50 [2]: inconclusive: 20 µM
AC50 [12]: inconclusive: 20 µM
outcome [7]: inactive
outcome [13]: inactive
outcome [14]: inactive
outcome [5]: inactive

CC(c1ccc(O)cc1)(c1ccc(O)cc1)c1ccc(O)cc1
AC50 [1]: inconclusive: 196 µM

COc1nc(NC(C)C)nc(NC(C)C)n1
outcome [13]: inactive
AC50 [9]: inconclusive: 0.206 µM
outcome [10]: inactive

Cn1sc(Cl)cc1=O
AC50 [1]: inconclusive: 20.2 µM

CC(C)(C)c1cc(O)ccc1O
outcome [1]: inactive

CCC(C)c1cc([N+](=O)[O-])cc([N+](=O)[O-])c1O (configuration not stated)
outcome [1]: inactive

CC(C)(C)OOC(C)(C)C
AC50 [1]: inconclusive: 106 µM

O=[N+]([O-])c1ccc(O)c([N+](=O)[O-])c1
AC50 [1]: inconclusive: 19.6 µM

ClC1=C(Cl)[C@]2(Cl)[C@@H]3[C@@H](Cl)[C@H]4O[C@H]4[C@@H]3C1(Cl)C2(Cl)Cl
outcome [1]: inactive

CC(=O)[O][Hg][c]1ccccc1
outcome [1]: inactive

N#CCCCCC#N
outcome [1]: inactive

Cc1cccc(N)c1
AC50 [1]: inconclusive: 2.58 µM

CCNS(=O)(=O)C(F)(F)C(F)(F)C(F)(F)C(F)(F)C(F)(F)C(F)(F)C(F)(F)C(F)(F)F
AC50 [1]: active: 17 µM

Clc1ccc(C(c2ccccc2Cl)C(Cl)(Cl)Cl)cc1 (configuration not stated)
AC50 [1]: inconclusive: 171 µM

CC1=C2C[C@H]3[C@@H](CC=C4C[C@@H](O)CC[C@@]43C)[C@@H]2CC[C@]12O[C@@H]1C[C@H](C)CN[C@H]1[C@H]2C
AC50 [1]: active: 22.5 µM

O=S(=O)(O)C(F)(F)C(F)(F)C(F)(F)C(F)(F)F
AC50 [1]: inconclusive: 16.7 µM

Clc1cccc(Cl)c1
AC50 [1]: inconclusive: 202 µM

COc1cc(OC)nc(NC(=O)NS(=O)(=O)c2ncccc2OCC(F)(F)F)n1
outcome [6]: inactive
AC50 [2]: inconclusive: 20 µM
AC50 [12]: inconclusive: 0.0004 µM
outcome [15]: inactive
AC50 [4]: inconclusive: 20 µM

COc1cc(C=O)cc2c1[C@H](COC(N)=O)[C@]1(OC(C)=O)ON2C[C@H]2[C@@H]1N2C(C)=O
AC50 [1]: inconclusive: 188 µM

O=C(N[C@H]1CN2CCC1CC2)c1ccc2c(c1)OCCO2
AC50 [1]: inconclusive: 138 µM

O=C(N[C@H]1CN2CCC1CC2)c1cc2ccoc2cn1
AC50 [1]: inconclusive: 202 µM

Nc1c(Cl)c(F)nc(OCC(=O)O)c1Cl
outcome [1]: inactive
outcome [11]: inactive
AC50 [6]: inconclusive: 20 µM
AC50 [12]: inconclusive: 20 µM
AC50 [13]: inconclusive: 20 µM
AC50 [14]: inconclusive: 0.000822 µM
outcome [4]: inactive
AC50 [9]: inconclusive: 20 µM
AC50 [5]: inconclusive: 20 µM
AC50 [10]: inconclusive: 20 µM

CC1(C)CCC(=Cc2ccc(Cl)cc2)C1(O)Cn1cncn1 (configuration not stated)
AC50 [2]: inconclusive: 3.95 µM
outcome [13]: inactive
AC50 [4]: inconclusive: 20 µM
AC50 [9]: inconclusive: 0.000925 µM

O=S(=O)(O)C(F)(F)C(F)(F)C(F)(F)C(F)(F)C(F)(F)C(F)(F)F
AC50 [1]: active: 25.9 µM
